Source: patent US10006080B2, “High-selectivity contact activation inhibitor based on infestin-4” (OBSCHESTVO S OGRANICHENNOY OTVETSTVENNOSTYU …, priority 2013, dated 2018)
Results are given in words; binding and its absence hold for the method and conditions named. Some binding calls cover weakened binding; strength is not graded here.

Protein sequences, listed by entry. Tags and fused reporters are not part of them. Residues count along the entry.
UniProt P03951, residues 19-625: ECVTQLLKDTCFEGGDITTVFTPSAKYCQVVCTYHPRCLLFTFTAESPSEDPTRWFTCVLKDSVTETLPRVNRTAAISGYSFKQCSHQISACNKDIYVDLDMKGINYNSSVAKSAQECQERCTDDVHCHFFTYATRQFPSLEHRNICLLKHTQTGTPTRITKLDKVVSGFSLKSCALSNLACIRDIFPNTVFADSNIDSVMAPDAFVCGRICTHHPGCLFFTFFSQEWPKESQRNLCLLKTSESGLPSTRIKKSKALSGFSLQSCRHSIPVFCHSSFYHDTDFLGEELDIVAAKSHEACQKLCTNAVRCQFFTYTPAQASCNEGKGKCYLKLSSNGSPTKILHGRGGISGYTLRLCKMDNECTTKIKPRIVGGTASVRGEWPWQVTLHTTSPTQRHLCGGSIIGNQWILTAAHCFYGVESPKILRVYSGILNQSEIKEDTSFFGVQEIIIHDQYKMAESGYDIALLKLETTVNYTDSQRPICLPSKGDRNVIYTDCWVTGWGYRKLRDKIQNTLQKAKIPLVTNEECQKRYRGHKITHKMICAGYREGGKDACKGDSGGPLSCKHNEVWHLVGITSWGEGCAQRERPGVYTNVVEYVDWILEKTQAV

What was measured:
[1] = target: T1, factor XIIa (UniProt P00748 20-615, limits assumed); experiment: chromogenic protease inhibition test in buffer
T1 construct: also called fXIIa
T1 sequence (looked up): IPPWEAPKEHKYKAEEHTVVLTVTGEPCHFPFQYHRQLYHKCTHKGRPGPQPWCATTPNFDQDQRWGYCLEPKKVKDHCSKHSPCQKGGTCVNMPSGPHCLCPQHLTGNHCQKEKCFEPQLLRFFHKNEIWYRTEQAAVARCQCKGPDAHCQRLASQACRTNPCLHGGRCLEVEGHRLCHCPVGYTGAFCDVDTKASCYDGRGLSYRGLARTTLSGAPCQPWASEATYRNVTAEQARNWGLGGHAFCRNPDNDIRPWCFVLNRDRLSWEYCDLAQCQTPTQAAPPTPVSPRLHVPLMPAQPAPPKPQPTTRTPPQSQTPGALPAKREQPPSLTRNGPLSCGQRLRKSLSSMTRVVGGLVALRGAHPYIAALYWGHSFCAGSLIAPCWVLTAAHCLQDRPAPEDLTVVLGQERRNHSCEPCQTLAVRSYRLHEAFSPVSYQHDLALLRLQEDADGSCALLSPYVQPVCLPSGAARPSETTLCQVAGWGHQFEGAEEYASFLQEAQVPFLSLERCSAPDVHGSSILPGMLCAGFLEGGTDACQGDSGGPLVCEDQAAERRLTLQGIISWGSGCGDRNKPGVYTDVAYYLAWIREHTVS

[2] = target: factor XIa (UniProt P03951); experiment: chromogenic protease inhibition test in buffer

binding [1]: binds
binding [2]: binds
B1: corn trypsin inhibitor (other, UniProt P01088 29-138, looked up)
chain: SAGTSCVPGWAIPHNPLPSCRWYVTSRTCGIGPRLPWPELKRRCCRELADIPAYCRCTALSILMDGAIPPGPDAQLEGRLEDLPGCPREVQRGFAATLVTEAECNLATIS
notes: Isolated from corn; also called CTI
